Results taken from the supplement of paper PMC10849652.
The other results are listed elsewhere or left out.

Protein sequences, listed by entry. Tags and fused reporters are not part of them. Lines headed by an entry give the natural chain unless they say otherwise; changes in a name come on top.
UniProt Q13686: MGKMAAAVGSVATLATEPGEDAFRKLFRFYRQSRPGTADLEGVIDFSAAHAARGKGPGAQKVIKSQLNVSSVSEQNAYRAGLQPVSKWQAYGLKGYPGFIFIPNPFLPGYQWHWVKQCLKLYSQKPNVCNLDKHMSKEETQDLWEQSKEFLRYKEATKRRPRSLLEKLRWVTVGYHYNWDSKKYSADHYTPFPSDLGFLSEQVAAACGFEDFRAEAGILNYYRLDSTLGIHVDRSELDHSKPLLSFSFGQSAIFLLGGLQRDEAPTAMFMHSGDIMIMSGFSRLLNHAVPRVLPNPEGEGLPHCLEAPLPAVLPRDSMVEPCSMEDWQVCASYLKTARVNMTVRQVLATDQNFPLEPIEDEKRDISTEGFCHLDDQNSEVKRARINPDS
UniProt P55008: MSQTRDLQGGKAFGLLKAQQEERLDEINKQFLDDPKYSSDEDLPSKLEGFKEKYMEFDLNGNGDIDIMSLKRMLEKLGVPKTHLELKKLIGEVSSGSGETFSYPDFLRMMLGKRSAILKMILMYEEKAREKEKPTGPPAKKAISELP
UniProt Q96Q42: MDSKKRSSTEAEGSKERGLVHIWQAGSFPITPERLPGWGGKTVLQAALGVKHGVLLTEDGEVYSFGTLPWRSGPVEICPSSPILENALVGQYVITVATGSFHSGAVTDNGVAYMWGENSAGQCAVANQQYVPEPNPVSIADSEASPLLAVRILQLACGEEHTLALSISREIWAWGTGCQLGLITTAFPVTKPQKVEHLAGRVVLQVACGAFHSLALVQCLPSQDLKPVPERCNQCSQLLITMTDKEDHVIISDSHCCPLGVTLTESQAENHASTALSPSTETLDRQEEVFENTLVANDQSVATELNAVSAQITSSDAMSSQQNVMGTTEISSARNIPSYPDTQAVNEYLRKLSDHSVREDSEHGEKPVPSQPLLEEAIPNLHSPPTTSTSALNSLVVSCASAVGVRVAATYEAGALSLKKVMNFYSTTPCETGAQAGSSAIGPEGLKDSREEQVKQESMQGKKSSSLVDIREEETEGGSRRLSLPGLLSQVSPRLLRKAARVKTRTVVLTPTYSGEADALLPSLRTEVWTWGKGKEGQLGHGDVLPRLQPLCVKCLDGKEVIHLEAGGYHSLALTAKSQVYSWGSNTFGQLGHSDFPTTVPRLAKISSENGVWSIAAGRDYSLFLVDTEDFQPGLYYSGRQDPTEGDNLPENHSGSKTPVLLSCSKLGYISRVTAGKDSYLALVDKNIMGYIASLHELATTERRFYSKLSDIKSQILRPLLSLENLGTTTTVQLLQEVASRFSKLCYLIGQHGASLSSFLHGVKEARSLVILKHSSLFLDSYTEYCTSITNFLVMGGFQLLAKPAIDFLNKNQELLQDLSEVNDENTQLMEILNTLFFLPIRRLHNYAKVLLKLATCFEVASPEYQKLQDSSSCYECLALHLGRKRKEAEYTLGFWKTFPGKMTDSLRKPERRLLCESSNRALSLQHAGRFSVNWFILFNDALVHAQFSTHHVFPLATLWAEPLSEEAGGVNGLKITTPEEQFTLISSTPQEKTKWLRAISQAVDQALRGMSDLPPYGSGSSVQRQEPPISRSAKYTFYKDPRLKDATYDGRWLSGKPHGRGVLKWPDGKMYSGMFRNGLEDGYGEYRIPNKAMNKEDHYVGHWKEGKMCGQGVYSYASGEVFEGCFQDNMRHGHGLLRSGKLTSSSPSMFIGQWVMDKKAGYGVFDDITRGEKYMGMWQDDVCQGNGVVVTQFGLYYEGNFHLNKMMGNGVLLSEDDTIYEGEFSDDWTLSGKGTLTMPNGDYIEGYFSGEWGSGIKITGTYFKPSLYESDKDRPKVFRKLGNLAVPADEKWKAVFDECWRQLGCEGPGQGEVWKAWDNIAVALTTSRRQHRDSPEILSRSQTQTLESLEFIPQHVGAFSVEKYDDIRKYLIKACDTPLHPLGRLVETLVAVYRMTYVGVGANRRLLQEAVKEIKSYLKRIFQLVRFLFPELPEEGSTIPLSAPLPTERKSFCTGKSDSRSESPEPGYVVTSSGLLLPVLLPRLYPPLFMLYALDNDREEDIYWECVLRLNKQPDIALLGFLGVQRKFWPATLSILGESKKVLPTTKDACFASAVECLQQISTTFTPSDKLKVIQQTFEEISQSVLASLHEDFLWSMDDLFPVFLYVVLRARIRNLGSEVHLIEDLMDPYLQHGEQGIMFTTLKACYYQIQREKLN
UniProt O60266: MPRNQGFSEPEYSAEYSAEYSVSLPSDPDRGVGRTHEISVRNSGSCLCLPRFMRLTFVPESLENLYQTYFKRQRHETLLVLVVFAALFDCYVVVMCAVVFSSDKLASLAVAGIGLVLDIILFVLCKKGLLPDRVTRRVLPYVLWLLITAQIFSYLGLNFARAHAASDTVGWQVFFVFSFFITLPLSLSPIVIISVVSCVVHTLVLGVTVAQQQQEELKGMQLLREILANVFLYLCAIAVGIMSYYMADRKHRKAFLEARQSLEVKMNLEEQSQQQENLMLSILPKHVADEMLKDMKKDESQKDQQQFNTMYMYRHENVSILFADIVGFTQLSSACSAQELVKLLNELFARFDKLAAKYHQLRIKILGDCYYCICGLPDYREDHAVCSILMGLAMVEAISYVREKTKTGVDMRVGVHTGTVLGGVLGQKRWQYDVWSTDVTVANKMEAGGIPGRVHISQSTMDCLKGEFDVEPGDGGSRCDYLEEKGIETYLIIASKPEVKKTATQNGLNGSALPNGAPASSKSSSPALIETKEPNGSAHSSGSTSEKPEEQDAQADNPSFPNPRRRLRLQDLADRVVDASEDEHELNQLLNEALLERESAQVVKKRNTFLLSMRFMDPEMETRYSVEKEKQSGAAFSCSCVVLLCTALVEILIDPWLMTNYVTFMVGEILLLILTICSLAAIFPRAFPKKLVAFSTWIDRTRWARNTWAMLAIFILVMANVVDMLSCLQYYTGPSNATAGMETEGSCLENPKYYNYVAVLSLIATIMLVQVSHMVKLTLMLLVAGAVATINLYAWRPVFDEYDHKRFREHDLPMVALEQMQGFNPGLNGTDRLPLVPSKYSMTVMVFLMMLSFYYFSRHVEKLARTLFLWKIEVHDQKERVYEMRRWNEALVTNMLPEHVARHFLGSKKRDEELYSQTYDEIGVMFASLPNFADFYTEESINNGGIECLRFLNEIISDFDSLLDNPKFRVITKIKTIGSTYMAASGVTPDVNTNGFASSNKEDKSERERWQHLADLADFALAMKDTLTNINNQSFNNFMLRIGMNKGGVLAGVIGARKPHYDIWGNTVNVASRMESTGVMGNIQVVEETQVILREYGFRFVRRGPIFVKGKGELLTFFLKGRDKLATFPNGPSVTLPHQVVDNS
UniProt P54922: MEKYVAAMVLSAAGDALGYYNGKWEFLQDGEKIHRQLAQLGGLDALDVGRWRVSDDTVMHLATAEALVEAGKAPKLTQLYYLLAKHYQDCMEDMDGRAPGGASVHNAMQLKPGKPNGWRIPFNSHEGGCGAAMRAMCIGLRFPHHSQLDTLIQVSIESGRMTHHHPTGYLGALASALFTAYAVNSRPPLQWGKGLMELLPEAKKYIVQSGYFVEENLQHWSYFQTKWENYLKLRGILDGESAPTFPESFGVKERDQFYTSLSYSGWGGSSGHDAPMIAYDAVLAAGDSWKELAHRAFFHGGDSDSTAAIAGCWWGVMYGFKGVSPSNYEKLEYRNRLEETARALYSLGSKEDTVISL
UniProt Q9BS18, whole entry, looked up: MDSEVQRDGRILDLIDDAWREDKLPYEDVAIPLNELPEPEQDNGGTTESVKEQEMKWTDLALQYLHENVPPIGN
UniProt Q9Y4X0: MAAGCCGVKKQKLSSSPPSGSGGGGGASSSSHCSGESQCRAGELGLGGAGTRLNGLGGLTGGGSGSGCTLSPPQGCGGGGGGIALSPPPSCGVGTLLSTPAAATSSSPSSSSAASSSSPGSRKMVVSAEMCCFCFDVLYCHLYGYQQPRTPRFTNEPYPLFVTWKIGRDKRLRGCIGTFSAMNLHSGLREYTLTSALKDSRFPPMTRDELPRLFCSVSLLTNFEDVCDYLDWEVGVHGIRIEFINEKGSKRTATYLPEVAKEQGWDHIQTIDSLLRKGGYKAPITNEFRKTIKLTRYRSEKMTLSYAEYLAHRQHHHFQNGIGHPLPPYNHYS
UniProt Q9C0C7: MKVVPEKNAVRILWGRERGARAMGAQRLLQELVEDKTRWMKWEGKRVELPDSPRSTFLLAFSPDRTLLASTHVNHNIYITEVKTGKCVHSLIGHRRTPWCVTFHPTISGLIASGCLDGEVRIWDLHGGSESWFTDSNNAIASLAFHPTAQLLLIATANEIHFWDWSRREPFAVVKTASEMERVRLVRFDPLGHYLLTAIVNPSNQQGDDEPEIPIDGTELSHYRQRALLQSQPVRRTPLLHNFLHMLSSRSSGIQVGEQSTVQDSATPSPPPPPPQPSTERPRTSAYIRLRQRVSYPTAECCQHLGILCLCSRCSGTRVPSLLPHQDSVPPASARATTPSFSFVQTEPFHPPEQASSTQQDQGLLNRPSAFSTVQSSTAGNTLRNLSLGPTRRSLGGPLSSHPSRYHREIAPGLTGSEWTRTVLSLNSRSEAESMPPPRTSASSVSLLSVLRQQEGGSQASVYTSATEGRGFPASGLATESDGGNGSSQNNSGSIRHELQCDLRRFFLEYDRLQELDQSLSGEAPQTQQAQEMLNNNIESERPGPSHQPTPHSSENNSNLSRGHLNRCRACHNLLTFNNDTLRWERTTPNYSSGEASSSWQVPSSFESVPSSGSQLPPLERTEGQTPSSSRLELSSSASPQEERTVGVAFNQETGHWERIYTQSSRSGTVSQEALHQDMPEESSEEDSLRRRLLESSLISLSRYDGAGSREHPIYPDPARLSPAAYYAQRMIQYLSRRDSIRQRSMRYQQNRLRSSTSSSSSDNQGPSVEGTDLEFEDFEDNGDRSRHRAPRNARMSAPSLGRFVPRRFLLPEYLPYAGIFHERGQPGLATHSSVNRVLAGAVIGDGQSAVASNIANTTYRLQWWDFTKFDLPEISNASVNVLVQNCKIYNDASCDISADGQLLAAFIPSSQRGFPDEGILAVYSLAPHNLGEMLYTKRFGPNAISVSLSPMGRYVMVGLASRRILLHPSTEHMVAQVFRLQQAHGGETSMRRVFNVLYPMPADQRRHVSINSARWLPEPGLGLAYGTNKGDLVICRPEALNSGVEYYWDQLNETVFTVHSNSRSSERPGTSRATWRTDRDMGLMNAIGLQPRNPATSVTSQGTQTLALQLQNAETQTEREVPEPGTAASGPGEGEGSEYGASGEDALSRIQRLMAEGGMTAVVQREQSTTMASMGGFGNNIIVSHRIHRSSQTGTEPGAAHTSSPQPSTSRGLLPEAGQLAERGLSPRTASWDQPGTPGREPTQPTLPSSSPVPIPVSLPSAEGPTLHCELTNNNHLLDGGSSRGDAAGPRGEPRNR
UniProt Q9UHB7: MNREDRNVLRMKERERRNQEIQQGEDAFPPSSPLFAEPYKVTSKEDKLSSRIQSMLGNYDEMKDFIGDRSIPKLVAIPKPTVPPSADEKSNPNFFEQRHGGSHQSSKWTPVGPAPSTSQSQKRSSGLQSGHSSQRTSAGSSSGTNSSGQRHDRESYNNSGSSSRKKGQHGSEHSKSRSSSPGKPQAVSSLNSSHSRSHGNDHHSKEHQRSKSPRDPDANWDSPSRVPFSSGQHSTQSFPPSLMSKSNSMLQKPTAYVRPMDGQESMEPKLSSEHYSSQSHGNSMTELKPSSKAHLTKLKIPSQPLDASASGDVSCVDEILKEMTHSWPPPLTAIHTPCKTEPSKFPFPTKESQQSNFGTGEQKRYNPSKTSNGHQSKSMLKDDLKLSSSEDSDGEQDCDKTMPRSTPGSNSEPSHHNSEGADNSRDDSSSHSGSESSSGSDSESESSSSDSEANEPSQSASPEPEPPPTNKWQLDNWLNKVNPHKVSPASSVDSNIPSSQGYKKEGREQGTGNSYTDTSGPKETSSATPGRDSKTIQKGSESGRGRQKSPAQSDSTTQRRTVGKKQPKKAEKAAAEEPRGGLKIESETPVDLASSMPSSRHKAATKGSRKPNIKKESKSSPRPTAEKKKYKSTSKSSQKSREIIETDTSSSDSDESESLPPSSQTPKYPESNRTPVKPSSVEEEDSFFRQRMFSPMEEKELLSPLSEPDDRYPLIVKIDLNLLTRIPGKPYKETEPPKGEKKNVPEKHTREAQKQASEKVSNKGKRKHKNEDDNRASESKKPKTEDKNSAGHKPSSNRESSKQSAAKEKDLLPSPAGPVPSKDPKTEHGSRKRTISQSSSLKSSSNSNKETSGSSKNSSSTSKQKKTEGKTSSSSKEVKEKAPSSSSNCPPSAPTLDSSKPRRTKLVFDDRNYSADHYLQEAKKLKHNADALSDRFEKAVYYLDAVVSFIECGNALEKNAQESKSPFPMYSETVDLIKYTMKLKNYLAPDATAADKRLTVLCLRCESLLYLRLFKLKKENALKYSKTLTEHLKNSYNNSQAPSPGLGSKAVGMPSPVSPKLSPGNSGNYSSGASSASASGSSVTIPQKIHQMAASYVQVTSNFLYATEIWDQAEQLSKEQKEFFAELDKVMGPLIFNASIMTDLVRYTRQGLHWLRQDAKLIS

Compound: CC[C@@H]1C(=O)N(C)c2cnc(Nc3ccc(C(=O)N[C@H]4CC[C@H](N5CCN(CC6CC6)CC5)CC4)cc3OC)nc2N1C(C)C [volasertib]
Assay: log2 fold change, soluble protein after heating vs DMSO (PISA); higher = thermal stabilisation; K562 cells, 10 uM, 30 min; active = over 0.2 and 3.5 SD of the protein, either way, in both replicates (recomputed)
Method in brief: (§1)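 K562 cells at 2×10^6 cells/mL were treated for 30 min with 10 μM compound, and aliquots were heated for 3 min over 48°C-58°C before pooling. Extraction used PBS with 0.5% NP-40 at 4°C, and soluble protein was the supernatant after 21,000xg for 90 min, measured by TMTpro 16plex LC-MS/MS with channel sums equalised. Thermal stability values, relative to control samples and from duplicates, are log2 fold changes.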

Target	log2 fold change
AKR1D1 (UniProt P51857)	inactive: 0.068
ALG13 isoform 2 (UniProt Q9NP73)	inactive: 0.048
ALKBH1 (UniProt Q13686)	inactive: 0.019
AIF1 (UniProt P55008)	inactive: 0.047
ADIPOR2 (UniProt Q86V24)	inactive: -0.071
ALS2 (UniProt Q96Q42)	inactive: 0.137
ADCY3 (UniProt O60266)	inactive: -0.098
ADD2 isoform 9 (UniProt P35612)	inactive: -0.1
ADPRH (UniProt P54922)	inactive: 0.108
AMZ2 (UniProt Q86W34)	inactive: -0.081
AKNA (UniProt Q7Z591)	inactive: 0.015

Compound: CC[C@H](C)N1C=C(C2=C(C=C(C=C21)C3=CN=C(C=C3)N4CCNCC4)C(=O)NCC5=C(C=C(NC5=O)C)C)C
Assay: as above
Method in brief: as §1

Target	log2 fold change
ADCY7 (UniProt P51828)	inactive: 0.031
ALG13 isoform 2 (UniProt Q9NP73)	inactive: 0.107
ALKBH1 (UniProt Q13686)	inactive: -0.041
AHSP (UniProt Q9NZD4)	inactive: 0.05
ADPRH (UniProt P54922)	inactive: 0.036
ADNP (UniProt Q9H2P0)	inactive: 0.008

Compound: CC[C@H](C)[C@@H](C(=O)N[C@@H]([C@@H](C)O)C(=O)N[C@@H](CC(C)C)C(=O)[C@]1(CO1)C)NC(=O)[C@H]([C@@H](C)CC)N(C)C(=O)C [epoxomicin]
Assay: as above
Method in brief: as §1

Target	log2 fold change
ANAPC13 (UniProt Q9BS18)	inactive: 0.366
ADCY7 (UniProt P51828)	inactive: -0.134
AMMECR1 (UniProt Q9Y4X0)	inactive: 0.098
AMBRA1 isoform 5 (UniProt Q9C0C7)	inactive: -0.005
ALG13 isoform 2 (UniProt Q9NP73)	inactive: 0.074
ALKBH1 (UniProt Q13686)	inactive: 0.041
AIF1 (UniProt P55008)	active: -0.727
AFF4 (UniProt Q9UHB7)	inactive: -0.046
ALS2 (UniProt Q96Q42)	inactive: -0.307
ADPRH (UniProt P54922)	inactive: -0.04
ALDOB (UniProt P05062)	inactive: -0.059
AMZ2 (UniProt Q86W34)	inactive: 0.024
ADD1 isoform 4 (UniProt P35611)	inactive: -0.431

Compound: CCn1c(C(=O)N(C2CC2)C2CC2)cc2c3c(ncn3C)c(Nc3cc(C)n(C)n3)nc21
Assay: as above
Method in brief: as §1

Target	log2 fold change
AMMECR1 (UniProt Q9Y4X0)	inactive: -0.089
AGGF1 (UniProt Q8N302)	inactive: -0.092
AGAP1 (UniProt Q9UPQ3)	inactive: 0.025
ADIPOR2 (UniProt Q86V24)	inactive: -0.015
AFF4 (UniProt Q9UHB7)	inactive: -0.008
AHSP (UniProt Q9NZD4)	inactive: -0.252
ALS2 (UniProt Q96Q42)	inactive: 0.027
ADCY3 (UniProt O60266)	inactive: 0.007
ALDH3A2 isoform 2 (UniProt P51648)	inactive: 0.056
ADPRM (UniProt Q3LIE5)	inactive: 0.017

Compound: CCn1cc(-c2ccnc3[nH]c(-c4cccc(CN(C)C)c4)cc23)c(-c2ccc(NC(=O)N(C)C)cc2)n1
Assay: as above
Method in brief: as §1

Target	log2 fold change
ADCY7 (UniProt P51828)	inactive: 0.151
AKR1D1 (UniProt P51857)	inactive: -0.087
AIG1 (UniProt Q9NVV5)	inactive: -0.268
ALG13 isoform 2 (UniProt Q9NP73)	inactive: -0.005
ALKBH7 (UniProt Q9BT30)	inactive: -0.048
ALKBH1 (UniProt Q13686)	inactive: -0.085
ADGRL1 (UniProt O94910)	inactive: -0.235
ADIPOR2 (UniProt Q86V24)	inactive: 0.049
AFF4 (UniProt Q9UHB7)	inactive: 0.132
ADCY3 (UniProt O60266)	inactive: -0.063
ADPRH (UniProt P54922)	inactive: 0.097
ADNP (UniProt Q9H2P0)	inactive: 0.18
ADD1 isoform 4 (UniProt P35611)	inactive: -0.001

Compound: CN(C)CC(=O)Nc1ccc2[nH]c(=O)c3ccccc3c2c1
Assay: as above
Method in brief: as §1

Target	log2 fold change
AFMID isoform 2 (UniProt Q63HM1)	inactive: -0.104
AMMECR1 (UniProt Q9Y4X0)	inactive: -0.12
AGTPBP1 isoform 3 (UniProt Q9UPW5)	inactive: -0.362
AMBRA1 isoform 5 (UniProt Q9C0C7)	inactive: 0.056
AKR1D1 (UniProt P51857)	inactive: 0.016
ALG13 isoform 2 (UniProt Q9NP73)	inactive: 0.001
AGAP1 (UniProt Q9UPQ3)	inactive: 0.152
ALKBH1 (UniProt Q13686)	inactive: -0.149
AIF1 (UniProt P55008)	inactive: 0.01
ADIPOR2 (UniProt Q86V24)	inactive: -0.044
ADGRD1 isoform 4 (UniProt Q6QNK2)	inactive: 0.082
ADCY3 (UniProt O60266)	inactive: -0.209
ALDH3A2 isoform 2 (UniProt P51648)	inactive: -0.34
ADPRH (UniProt P54922)	inactive: 0.1

Compound: CN(CCOC1=CC=C(C=C1)C[C@H]2C(=O)NC(=O)S2)C3=CC=CC=N3 (racemic) [rosiglitazone]
Assay: as above
Method in brief: as §1

Target	log2 fold change
AMOTL1 (UniProt Q8IY63)	inactive: -0.01
AGGF1 (UniProt Q8N302)	inactive: -0.056
AMBRA1 isoform 5 (UniProt Q9C0C7)	inactive: 0.028
AKR1D1 (UniProt P51857)	inactive: 0.007
ALG13 isoform 2 (UniProt Q9NP73)	inactive: 0.018
ALKBH1 (UniProt Q13686)	inactive: -0.008
ADIPOR2 (UniProt Q86V24)	inactive: 0.104
AFF4 (UniProt Q9UHB7)	inactive: 0.021
ALDH3A2 isoform 2 (UniProt P51648)	inactive: -0.058
ADPRM (UniProt Q3LIE5)	inactive: 0.127
